Assay results as given in the supplement of paper PMC6411743.
± gives the standard deviation of the averaged measurements. Some of the results follow.

The chains behind the UniProt entries cited, without tags or fusion partners. Where a name states a change or a piece, a line headed by the entry shows the natural chain unless it says otherwise.
UniProt P35241, whole entry: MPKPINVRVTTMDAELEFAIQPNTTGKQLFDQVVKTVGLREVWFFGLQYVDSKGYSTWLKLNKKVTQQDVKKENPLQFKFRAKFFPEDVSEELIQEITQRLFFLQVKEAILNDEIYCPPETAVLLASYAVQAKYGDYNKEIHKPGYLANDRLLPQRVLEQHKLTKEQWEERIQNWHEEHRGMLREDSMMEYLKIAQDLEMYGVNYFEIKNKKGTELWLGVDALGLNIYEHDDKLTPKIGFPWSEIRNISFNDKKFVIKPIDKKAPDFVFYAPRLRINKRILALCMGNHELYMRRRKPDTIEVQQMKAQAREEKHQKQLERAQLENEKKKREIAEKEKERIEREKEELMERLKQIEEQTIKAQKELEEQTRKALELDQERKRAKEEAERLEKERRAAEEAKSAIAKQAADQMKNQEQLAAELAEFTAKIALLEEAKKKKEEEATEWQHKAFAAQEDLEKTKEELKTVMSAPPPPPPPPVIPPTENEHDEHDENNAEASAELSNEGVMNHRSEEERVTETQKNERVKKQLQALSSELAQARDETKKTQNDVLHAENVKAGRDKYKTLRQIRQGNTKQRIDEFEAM
UniProt P42765: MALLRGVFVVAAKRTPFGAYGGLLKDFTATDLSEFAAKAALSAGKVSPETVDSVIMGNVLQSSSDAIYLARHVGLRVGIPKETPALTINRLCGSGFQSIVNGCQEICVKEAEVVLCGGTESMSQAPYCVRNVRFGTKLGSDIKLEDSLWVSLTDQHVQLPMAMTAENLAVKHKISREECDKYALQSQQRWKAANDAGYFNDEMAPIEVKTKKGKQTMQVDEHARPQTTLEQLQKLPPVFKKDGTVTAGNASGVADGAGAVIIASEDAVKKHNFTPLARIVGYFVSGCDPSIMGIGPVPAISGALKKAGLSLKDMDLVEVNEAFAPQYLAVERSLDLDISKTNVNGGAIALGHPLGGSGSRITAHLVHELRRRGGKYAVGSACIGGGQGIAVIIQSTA
UniProt P30044: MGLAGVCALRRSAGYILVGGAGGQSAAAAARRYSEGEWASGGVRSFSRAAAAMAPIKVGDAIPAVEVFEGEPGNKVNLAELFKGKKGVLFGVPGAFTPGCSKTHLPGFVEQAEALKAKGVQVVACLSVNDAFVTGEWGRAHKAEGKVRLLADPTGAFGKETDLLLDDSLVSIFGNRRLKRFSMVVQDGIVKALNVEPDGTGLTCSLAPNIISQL
UniProt P46108: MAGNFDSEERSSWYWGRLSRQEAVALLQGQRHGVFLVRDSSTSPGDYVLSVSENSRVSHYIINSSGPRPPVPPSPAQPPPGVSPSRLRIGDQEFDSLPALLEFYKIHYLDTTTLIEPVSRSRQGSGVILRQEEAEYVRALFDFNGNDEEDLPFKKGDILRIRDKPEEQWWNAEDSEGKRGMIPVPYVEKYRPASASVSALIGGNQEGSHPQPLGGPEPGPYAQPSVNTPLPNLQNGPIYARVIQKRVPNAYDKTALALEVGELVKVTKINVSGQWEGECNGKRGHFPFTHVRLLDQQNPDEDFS
UniProt P42574: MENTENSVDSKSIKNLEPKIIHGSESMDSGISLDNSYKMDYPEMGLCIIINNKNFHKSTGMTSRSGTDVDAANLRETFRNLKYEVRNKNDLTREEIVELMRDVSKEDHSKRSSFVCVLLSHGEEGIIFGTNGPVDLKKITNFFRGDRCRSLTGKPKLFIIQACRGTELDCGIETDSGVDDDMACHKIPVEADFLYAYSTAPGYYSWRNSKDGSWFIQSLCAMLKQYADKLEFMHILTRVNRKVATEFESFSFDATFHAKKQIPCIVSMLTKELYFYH
UniProt P28749: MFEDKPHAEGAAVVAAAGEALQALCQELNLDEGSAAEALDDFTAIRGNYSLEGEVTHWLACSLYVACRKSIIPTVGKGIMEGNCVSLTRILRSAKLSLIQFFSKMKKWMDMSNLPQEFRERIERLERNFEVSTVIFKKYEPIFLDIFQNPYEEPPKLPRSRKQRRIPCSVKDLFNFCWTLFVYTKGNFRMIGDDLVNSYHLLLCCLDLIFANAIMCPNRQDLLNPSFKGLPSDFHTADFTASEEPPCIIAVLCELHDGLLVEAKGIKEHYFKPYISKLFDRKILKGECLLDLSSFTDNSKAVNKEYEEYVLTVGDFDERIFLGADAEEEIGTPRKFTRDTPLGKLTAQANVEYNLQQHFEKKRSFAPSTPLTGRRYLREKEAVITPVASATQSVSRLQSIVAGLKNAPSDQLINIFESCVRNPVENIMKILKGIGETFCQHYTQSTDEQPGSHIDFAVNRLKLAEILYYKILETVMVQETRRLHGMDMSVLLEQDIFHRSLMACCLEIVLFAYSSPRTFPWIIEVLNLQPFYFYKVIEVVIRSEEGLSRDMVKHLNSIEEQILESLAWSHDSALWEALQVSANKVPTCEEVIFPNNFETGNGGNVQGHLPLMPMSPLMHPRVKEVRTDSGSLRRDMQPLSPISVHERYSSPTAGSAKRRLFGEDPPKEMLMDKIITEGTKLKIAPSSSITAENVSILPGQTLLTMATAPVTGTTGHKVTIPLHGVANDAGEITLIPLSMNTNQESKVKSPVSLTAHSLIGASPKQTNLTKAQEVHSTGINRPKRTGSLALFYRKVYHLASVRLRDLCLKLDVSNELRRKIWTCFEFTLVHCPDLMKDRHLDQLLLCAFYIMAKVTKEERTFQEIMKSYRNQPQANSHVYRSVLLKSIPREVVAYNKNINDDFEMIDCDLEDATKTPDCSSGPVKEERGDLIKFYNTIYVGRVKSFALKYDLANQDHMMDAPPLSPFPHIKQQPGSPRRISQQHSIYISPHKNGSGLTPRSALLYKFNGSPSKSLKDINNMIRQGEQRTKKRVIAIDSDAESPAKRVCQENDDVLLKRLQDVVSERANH
UniProt P43897: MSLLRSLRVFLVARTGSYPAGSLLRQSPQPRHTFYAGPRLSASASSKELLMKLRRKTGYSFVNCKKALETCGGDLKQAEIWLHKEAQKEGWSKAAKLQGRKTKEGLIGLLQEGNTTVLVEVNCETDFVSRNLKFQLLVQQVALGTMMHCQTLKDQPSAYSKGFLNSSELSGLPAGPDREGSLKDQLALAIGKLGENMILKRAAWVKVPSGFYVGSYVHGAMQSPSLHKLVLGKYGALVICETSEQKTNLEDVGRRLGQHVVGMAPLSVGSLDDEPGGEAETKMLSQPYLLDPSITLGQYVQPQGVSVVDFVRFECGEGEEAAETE
UniProt P37108: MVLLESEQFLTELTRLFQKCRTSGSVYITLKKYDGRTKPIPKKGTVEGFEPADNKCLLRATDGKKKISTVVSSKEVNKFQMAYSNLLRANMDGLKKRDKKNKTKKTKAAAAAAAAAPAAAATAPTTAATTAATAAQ
UniProt P27986, whole entry: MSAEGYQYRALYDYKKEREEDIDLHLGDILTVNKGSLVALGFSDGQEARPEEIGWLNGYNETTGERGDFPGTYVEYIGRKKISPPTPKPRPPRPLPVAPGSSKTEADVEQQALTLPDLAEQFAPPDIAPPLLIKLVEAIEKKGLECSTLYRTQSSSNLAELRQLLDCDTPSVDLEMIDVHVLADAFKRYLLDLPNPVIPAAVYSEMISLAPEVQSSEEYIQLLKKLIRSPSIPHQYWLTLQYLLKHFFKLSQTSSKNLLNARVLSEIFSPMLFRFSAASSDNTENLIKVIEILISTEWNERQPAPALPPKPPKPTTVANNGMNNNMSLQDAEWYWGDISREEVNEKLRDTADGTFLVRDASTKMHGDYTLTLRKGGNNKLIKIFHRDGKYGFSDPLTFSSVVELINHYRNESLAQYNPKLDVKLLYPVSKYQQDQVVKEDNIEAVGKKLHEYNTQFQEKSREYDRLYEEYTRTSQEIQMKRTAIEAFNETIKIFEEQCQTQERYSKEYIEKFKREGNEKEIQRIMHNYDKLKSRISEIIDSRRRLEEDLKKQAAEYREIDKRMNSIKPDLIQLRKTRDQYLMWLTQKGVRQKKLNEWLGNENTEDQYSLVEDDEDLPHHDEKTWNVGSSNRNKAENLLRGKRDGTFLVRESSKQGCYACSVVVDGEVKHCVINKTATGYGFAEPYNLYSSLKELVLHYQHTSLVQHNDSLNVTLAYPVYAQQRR
UniProt P37275: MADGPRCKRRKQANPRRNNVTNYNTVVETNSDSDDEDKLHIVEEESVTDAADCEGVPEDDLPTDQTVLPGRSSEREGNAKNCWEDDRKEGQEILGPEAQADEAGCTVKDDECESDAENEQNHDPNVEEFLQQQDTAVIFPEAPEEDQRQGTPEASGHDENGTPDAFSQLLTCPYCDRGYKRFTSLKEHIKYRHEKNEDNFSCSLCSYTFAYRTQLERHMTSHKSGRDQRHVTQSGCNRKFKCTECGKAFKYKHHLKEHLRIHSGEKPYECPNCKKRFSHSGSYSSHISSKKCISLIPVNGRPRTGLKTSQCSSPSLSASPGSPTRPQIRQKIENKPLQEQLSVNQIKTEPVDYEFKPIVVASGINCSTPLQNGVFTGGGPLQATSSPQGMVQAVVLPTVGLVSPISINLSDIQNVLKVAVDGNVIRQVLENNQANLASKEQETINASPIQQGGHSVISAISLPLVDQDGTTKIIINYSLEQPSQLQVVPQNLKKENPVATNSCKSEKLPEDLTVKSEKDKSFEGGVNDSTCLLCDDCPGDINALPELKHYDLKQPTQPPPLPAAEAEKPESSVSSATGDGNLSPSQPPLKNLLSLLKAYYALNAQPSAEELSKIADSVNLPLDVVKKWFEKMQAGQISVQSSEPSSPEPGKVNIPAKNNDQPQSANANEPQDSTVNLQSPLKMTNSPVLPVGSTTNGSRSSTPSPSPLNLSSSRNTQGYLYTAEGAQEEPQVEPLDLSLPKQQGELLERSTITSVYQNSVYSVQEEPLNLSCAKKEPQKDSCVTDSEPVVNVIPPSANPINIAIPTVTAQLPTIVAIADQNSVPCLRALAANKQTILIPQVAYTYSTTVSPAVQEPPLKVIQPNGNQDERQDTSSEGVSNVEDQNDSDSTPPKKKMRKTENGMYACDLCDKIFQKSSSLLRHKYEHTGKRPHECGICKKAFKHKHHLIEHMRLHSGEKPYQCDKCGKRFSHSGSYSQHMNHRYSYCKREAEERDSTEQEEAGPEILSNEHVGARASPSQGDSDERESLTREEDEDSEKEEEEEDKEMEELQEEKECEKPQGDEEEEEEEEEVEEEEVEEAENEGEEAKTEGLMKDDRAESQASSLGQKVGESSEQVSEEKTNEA
UniProt P42331: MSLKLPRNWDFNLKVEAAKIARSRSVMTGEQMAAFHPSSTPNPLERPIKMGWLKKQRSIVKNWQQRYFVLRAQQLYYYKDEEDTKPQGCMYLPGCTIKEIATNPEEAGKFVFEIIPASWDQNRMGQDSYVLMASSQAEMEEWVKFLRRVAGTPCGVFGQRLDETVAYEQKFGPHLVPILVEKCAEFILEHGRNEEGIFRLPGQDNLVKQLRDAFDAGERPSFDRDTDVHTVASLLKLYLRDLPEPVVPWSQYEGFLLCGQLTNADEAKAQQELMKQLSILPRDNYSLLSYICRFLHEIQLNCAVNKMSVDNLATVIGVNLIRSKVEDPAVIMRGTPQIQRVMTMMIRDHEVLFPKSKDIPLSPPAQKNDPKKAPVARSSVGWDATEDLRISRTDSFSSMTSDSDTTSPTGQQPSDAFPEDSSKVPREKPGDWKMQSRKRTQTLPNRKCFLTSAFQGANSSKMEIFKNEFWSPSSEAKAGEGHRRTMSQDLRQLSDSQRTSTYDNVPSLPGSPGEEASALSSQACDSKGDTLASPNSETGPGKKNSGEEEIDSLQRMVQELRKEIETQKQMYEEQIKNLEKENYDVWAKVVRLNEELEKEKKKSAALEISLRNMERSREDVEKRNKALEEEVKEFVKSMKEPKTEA
UniProt P49959: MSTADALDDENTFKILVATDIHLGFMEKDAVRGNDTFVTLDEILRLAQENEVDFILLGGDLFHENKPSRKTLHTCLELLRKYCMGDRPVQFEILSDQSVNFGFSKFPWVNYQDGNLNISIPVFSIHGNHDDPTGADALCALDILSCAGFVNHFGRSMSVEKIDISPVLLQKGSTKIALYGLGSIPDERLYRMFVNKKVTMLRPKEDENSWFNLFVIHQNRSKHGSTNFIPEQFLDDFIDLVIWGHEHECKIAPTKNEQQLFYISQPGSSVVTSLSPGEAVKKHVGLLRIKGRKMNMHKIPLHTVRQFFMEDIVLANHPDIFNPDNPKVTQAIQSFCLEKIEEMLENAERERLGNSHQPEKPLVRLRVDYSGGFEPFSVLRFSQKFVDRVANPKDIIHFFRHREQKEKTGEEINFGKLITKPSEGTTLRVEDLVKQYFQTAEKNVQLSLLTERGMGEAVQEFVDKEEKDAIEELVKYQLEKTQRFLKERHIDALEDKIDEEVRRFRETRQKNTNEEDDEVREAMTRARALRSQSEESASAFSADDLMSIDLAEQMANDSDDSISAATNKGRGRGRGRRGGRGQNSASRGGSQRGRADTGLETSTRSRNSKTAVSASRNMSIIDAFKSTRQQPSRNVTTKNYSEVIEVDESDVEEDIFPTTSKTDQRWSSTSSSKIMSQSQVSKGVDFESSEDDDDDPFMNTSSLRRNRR

Compound: Nc1nc2c(ncn2[C@@H]2O[C@H](COP(=O)(O)OP(=O)(O)OP(=O)(O)O)[C@@H](O)[C@H]2O)c(=O)[nH]1 [guanosine triphosphate]
Test: NP40-soluble protein abundance relative to vehicle (solubility fold change) (ratio); higher = more soluble protein in presence of GTP
How it was run: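 Jurkat crude lysate prepared with a Dounce homogeniser was treated at eight concentrations spanning 0.1 to 10 mM, 10 min at room temperature then 3 min at 37 °C. Solubilisation with 0.8% NP40 and benzonase and ultracentrifugation preceded TMT labelling of the supernatant for LC-MS/MS. Fold change against the detergent-processed vehicle was determined per replicate from vsn-normalised intensities, across three independent experiments.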

Target	NP40-soluble protein abundance (concentration: 0.1mM)	NP40-soluble protein abundance (concentration: 0.5mM)	NP40-soluble protein abundance (concentration: 1mM)	NP40-soluble protein abundance (concentration: 2mM)	NP40-soluble protein abundance (concentration: 4mM)	NP40-soluble protein abundance (concentration: 6mM)	NP40-soluble protein abundance (concentration: 8mM)	NP40-soluble protein abundance (concentration: 10mM)
LRPPRC (UniProt P42704)	1.01 ± 0.025	1.02 ± 0.035	0.939 ± 0.017	0.933 ± 0.054	0.913 ± 0.041	0.902 ± 0.042	0.865 ± 0.02	0.855 ± 0.033
PRIM2 (UniProt P49643)	1.01 ± 0.046	1.01 ± 0.055	1.01 ± 0.052	1.01 ± 0.05	0.982 ± 0.033	0.963 ± 0.025	0.961 ± 0.085	0.945 ± 0.063
RDX (UniProt P35241)	0.909 ± 0.1	0.958 ± 0.11	0.931 ± 0.11	0.88 ± 0.13	0.869 ± 0.14	0.891 ± 0.12	0.921 ± 0.11	0.91 ± 0.12
UniProt P42765 and related entries	0.938 ± 0.057	0.971 ± 0.036	0.92 ± 0.038	0.901 ± 0.043	0.89 ± 0.045	0.898 ± 0.029	0.889 ± 0.042	0.867 ± 0.039
UniProt P30044 and related entries	0.913 ± 0.061	0.885 ± 0.088	0.96 ± 0.059	0.924 ± 0.098	0.95 ± 0.099	0.913 ± 0.092	0.885 ± 0.11	0.871 ± 0.098
PREP (UniProt P48147)	1.04 ± 0.06	1.05 ± 0.071	0.942 ± 0.053	0.945 ± 0.073	0.925 ± 0.068	0.917 ± 0.048	0.874 ± 0.025	0.861 ± 0.072
CRK (UniProt P46108)	0.966 ± 0.031	1 ± 0.011	1 ± 0.083	0.925 ± 0.059	0.998 ± 0.072	0.9 ± 0.059	0.951 ± 0.038	0.983 ± 0.077
CASP3 (UniProt P42574)	1.07 ± 0.025	1.03 ± 0.053	0.892 ± 0.037	0.911 ± 0.11	0.909 ± 0.047	0.856 ± 0.042	0.805 ± 0.08	0.815 ± 0.1
UniProt P40937 and related entries	1.03 ± 0.011	1.08 ± 0.027	1.09 ± 0.029	1.14 ± 0.059	1.18 ± 0.043	1.19 ± 0.061	1.16 ± 0.055	1.18 ± 0.052
UniProt P28749 and related entries	1.01 ± 0.05	0.992 ± 0.017	1.04 ± 0.015	1.02 ± 0.045	1.022 ± 0.0058	1.03 ± 0.053	1.01 ± 0.034	1.02 ± 0.015
RPL21 (UniProt P46778)	0.981 ± 0.092	1 ± 0.082	1.05 ± 0.12	1.01 ± 0.14	0.914 ± 0.2	0.856 ± 0.19	0.72 ± 0.22	0.971 ± 0.23
CA8 (UniProt P35219)	1.04 ± 0.017	1.01 ± 0.035	0.914 ± 0.029	0.934 ± 0.061	0.915 ± 0.064	0.879 ± 0.048	0.879 ± 0.072	0.874 ± 0.11
UniProt P46934-4	1.17 ± 0.1	1.08 ± 0.05	1.04 ± 0.063	1.06 ± 0.071	0.996 ± 0.032	0.982 ± 0.077	1.01 ± 0.038	0.938 ± 0.039
CAPZA2 (UniProt P47755)	0.929 ± 0.072	1 ± 0.049	0.935 ± 0.053	0.96 ± 0.065	0.918 ± 0.087	0.965 ± 0.037	0.943 ± 0.08	0.977 ± 0.074
TSFM (UniProt P43897)	0.917 ± 0.12	0.909 ± 0.095	0.883 ± 0.11	0.858 ± 0.1	0.855 ± 0.091	0.879 ± 0.091	0.859 ± 0.11	0.88 ± 0.11
PRDX6 (UniProt P30041)	0.968 ± 0.087	0.889 ± 0.033	0.893 ± 0.03	0.9 ± 0.044	0.889 ± 0.049	0.873 ± 0.019	0.795 ± 0.1	0.806 ± 0.081
UniProt P42285	1.09 ± 0.074	1.1 ± 0.089	1.09 ± 0.11	1.14 ± 0.14	1.23 ± 0.16	1.25 ± 0.15	1.24 ± 0.13	1.2 ± 0.12
SRP14 (UniProt P37108)	0.806 ± 0.041	0.819 ± 0.014	0.968 ± 0.081	0.948 ± 0.029	0.915 ± 0.051	0.965 ± 0.016	0.917 ± 0.037	1.06 ± 0.082
UniProt P36639 and related entries	0.938 ± 0.039	0.975 ± 0.017	0.91 ± 0.033	0.908 ± 0.058	0.86 ± 0.047	0.861 ± 0.053	0.86 ± 0.084	0.809 ± 0.06
ABCD3 (UniProt P28288)	1.07 ± 0.11	1.16 ± 0.14	0.98 ± 0.08	1.04 ± 0.17	1.03 ± 0.16	1.01 ± 0.13	0.962 ± 0.075	0.927 ± 0.098
PIK3R1 (UniProt P27986)	1.05 ± 0.042	1.05 ± 0.059	0.975 ± 0.019	0.972 ± 0.023	0.96 ± 0.046	0.939 ± 0.022	0.939 ± 0.017	0.9 ± 0.059
UniProt P48729 and related entries	0.942 ± 0.14	0.978 ± 0.12	0.91 ± 0.13	0.953 ± 0.14	0.981 ± 0.15	1.02 ± 0.18	1.04 ± 0.19	1.06 ± 0.21
GTF2E1 (UniProt P29083)	1.08 ± 0.028	1.1 ± 0.031	1.01 ± 0.026	1.05 ± 0.084	0.999 ± 0.051	1.01 ± 0.052	0.971 ± 0.046	0.963 ± 0.087
UniProt P37275 and related entries	0.935 ± 0.12	0.965 ± 0.13	0.99 ± 0.12	0.928 ± 0.1	0.937 ± 0.12	0.936 ± 0.084	0.976 ± 0.082	0.98 ± 0.094
UniProt P36542 and related entries	1 ± 0.016	1.04 ± 0.058	0.982 ± 0.05	0.986 ± 0.096	0.985 ± 0.096	1.01 ± 0.11	0.974 ± 0.086	0.922 ± 0.069
UniProt P33981 and related entries	1.04 ± 0.03	1.02 ± 0.066	1.07 ± 0.064	1.03 ± 0.054	1.04 ± 0.045	1.04 ± 0.033	1.13 ± 0.072	1.05 ± 0.012
UniProt P45880 and related entries	0.898 ± 0.021	0.964 ± 0.038	0.878 ± 0.029	0.895 ± 0.031	0.86 ± 0.025	0.892 ± 0.025	0.874 ± 0.057	0.867 ± 0.051
UniProt P42331 and related entries	1.037 ± 0.002	1.03 ± 0.029	1.01 ± 0.065	1.01 ± 0.06	0.966 ± 0.051	0.982 ± 0.049	0.979 ± 0.023	0.967 ± 0.066
TAGLN2 (UniProt P37802)	0.929 ± 0.035	0.894 ± 0.036	0.926 ± 0.062	0.934 ± 0.038	0.898 ± 0.069	0.892 ± 0.028	0.901 ± 0.082	0.996 ± 0.055
UniProt P49959 and related entries	1.02 ± 0.011	1.05 ± 0.041	1.01 ± 0.013	1 ± 0.037	1.01 ± 0.036	1.01 ± 0.044	1.03 ± 0.052	1.02 ± 0.053

Individual results from the entries so far:
Value for PIK3R1 (UniProt P27986) under NP40-soluble protein abundance (concentration: 1mM): 0.975 ± 0.019
Value for UniProt P42765 and related entries under NP40-soluble protein abundance (concentration: 2mM): 0.901 ± 0.043
